Results: patent US20130180014A1, “Pyridine Compounds for Controlling Invertebrate Pests III” (BASF SE, priority 2010, published 2013)
Some entries share one result that the patent states for a list of compounds.

How the values were obtained:
Format in all cases: in vivo
Aphis gossypii = assay: Cotton aphid, mixed life stages, method a) cotyledon dip; settings: 300 ppm; cotton cotyledons dipped; in comparison with untreated controls
From the text: (§1) The active compounds were formulated in 50:50 (vol/vol) acetone:water and 100 ppm Kinetica™ surfactant.
Cotton plants at the cotyledon stage (one plant per pot) were infested by placing a heavily infested leaf from the main colony on top of each cotyledon. The aphids were allowed to transfer to the host plant overnight, and the leaf used to transfer the aphids was removed. The cotyledons were dipped in the test solution and allowed to dry. After days, mortality counts were made.

Myzus persicae [1] = assay: Green peach aphid, mixed life stages, method a) pepper leaf dip; settings: 300 ppm; pepper leaves dipped; after 5 days; in comparison with untreated controls
From the text: as §1
Pepper plants in the 2nd leaf-pair stage (variety ‘California Wonder’) were infested with approximately 40 laboratory-reared aphids by placing infested leaf sections on top of the test plants. The leaf sections were removed after 24 hr. The leaves of the intact plants were dipped into gradient solutions of the test compound and allowed to dry. Test plants were maintained under fluorescent light (24 hour photoperiod) at about 25° C. and 20-40% relative humidity. Aphid mortality on the treated plants, relative to mortality on check plants, was determined after 5 days.

Aphis craccivora = assay: Cowpea aphid, spray on potted cowpea plants; settings: 300 ppm; cowpea plants sprayed; assessed after 24, 72 and 120 hours; in comparison with untreated controls
Method: The active compounds were formulated in 50:50 (vol/vol) acetone:water. The test solution was prepared at the day of use.
Potted cowpea plants colonized with 100-150 aphids of various stages were sprayed after the pest population had been recorded. Population reduction was assesed after 24, 72, and 120 hours.

Myzus persicae [2] = assay: Green peach aphid, systemic, artificial diet under membrane in 96-well plate; settings: 2500 ppm, 3 days, in comparison with untreated controls
From the text: For evaluating control of green peach aphid (Myzus persicae) through systemic means the test unit consisted of 96-well-microtiter plates containing liquid artificial diet under an artificial membrane.
The compounds were formulated using a solution containing 75% vol/vol water and 25% vol/vol DMSO. Different concentrations of formulated compounds were pipetted into the aphid diet, using a custom built pipetter, at two replications. After application, 5 to 8 adult aphids were placed on the artificial membrane inside the microtiter plate wells. The aphids were then allowed to suck on the treated aphid diet and incubated at about 23+1° C. and about 50+5% relative humidity for 3 days. Aphid mortality and fecundity was then visually assessed.

Nilaparvata lugens = assay: Brown planthopper, spray on potted rice seedlings; settings: 300 ppm; rice seedlings sprayed; after 72 hours; in comparison with untreated controls

CCCCc1ccc(C(=O)Nc2cccnc2)nc1 [Example 3] was tested, and the mortality (Aphis gossypii) was “at least 75%”, the mortality (Myzus persicae [1]) was “at least 90%” and the mortality (Aphis craccivora) was “at least 90%”. For the same compound, the mortality (Myzus persicae [2]) was 100% and the mortality (Nilaparvata lugens) was “at least 50%”.
